Assay results published in publication PMC5727176.
These are yes or no findings as the source states them, for the method shown. Binding seen in cells or lysates may run through a third protein. Some results given as binding are weak or reduced against the parent protein; the word gives no strength. For some of these results: Sequences can lack the tags named with a protein.

How the values were obtained:
FLAG–JunB = biological target: T1, FLAG–JunB (UniProt P09450); experiment: co-IP; HEK293T transfected with pcDNA3 encoding FLAG-tagged Jun family proteins and HA-tagged BATF, 24 h; anti-FLAG (M2) agarose; blot with anti-FLAG and anti-HA
T1 sequence: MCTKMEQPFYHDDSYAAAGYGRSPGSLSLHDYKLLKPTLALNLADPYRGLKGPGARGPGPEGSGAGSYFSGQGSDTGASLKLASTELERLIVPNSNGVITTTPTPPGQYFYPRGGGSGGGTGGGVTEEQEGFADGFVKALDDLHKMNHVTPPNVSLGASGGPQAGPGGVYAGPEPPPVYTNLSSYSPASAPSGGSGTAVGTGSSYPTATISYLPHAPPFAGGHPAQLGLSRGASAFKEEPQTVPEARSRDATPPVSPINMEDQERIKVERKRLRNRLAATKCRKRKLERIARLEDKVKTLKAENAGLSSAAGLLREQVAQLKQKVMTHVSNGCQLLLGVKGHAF

FLAG–c-Jun, P05627 = biological target: T2, FLAG–c-Jun, P05627; experiment: as above; details: remark: other sources report otherwise
T2 chain: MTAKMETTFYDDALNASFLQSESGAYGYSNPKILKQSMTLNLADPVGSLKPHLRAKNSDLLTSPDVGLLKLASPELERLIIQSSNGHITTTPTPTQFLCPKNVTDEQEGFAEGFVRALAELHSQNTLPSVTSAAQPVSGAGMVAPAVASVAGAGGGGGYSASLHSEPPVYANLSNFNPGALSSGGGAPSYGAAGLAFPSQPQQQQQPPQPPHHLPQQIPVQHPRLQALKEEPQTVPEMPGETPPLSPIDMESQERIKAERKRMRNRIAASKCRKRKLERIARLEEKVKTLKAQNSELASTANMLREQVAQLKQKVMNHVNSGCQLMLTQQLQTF

FLAG–JunD, P15066 = biological target: T3, FLAG–JunD, P15066; experiment: as above; details: remark: other sources report otherwise
T3 chain: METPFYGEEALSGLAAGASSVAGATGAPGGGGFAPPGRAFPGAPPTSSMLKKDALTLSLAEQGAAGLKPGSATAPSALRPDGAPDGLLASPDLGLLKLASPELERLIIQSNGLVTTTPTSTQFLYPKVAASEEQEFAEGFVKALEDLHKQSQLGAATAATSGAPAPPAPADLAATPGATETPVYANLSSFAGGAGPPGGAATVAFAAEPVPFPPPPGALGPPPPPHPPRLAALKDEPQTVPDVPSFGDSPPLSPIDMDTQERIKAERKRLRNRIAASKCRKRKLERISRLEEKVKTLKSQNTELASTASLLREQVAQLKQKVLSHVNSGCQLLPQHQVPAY

[1] = biological target: T4, JunB (construct of the in vitro binding assays) (UniProt P09450); experiment: pull-down; MBP-fusion protein on amylose resin mixed with in vitro translated FLAG-tagged protein; 150 mM NaCl, 5% glycerol, 1 mM DTT, 1 mM EDTA, 25 mM Tris-Cl pH 8.0, 1 h at 4 °C; eluted with 20 mM maltose; anti-FLAG blot; which partner was the MBP fusion is not told; only the target purified
T4 sequence: T1 sequence

[2] = biological target: T5, c-Jun (construct of the in vitro binding assays), P05627; experiment: as above; details: remark: other sources report otherwise
T5 chain: T2 chain

[3] = biological target: T6, JunD (construct of the in vitro binding assays), P15066; experiment: as above; details: remark: other sources report otherwise
T6 chain: T3 chain

[4] = biological target: T7, IκBζ (construct of the in vitro binding assays) (UniProt Q9EST8); experiment: as above
T7 sequence: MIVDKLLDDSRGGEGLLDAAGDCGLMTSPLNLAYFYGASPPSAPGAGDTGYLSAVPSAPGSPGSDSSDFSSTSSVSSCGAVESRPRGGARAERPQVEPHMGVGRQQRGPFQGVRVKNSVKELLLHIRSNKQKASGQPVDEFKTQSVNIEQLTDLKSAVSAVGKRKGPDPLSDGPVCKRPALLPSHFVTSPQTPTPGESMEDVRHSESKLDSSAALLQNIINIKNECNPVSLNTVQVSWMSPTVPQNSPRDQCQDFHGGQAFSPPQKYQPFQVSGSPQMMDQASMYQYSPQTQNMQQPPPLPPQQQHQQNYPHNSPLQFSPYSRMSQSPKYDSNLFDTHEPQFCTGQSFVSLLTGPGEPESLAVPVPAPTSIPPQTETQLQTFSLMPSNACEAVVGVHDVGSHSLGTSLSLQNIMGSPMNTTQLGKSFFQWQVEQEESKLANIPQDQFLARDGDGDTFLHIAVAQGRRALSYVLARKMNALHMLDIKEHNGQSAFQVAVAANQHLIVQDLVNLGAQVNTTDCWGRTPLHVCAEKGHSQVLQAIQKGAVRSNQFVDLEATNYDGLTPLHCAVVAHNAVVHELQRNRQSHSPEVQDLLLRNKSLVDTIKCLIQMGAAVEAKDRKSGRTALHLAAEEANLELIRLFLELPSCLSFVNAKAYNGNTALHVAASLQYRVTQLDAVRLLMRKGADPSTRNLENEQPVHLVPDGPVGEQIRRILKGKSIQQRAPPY

B1: haemagglutinin (HA)-tagged BATF (protein, UniProt O35284 1-125)
chain: MPHSSDSSDSSFSRSPPPGKQDSSDDVRKVQRREKNRIAAQKSRQRQTQKADTLHLESEDLEKQNAALRKEIKQLTEELKYFTSVLSSHEPLCSVLASGTPSPPEVVYSAHAFHQPHISSPRFQP
In the case of B1, the binding (FLAG–JunB) is reported as “binds”.

B2: haemagglutinin (HA)-tagged BATF, O35284 1-125 (protein)
chain: B1 chain
For B2, the binding (FLAG–c-Jun, P05627) was “binds” and the binding (FLAG–JunD, P15066) was “binds”.

B3: BATF (construct of the in vitro binding assays) (protein, UniProt O35284 1-125)
chain: B1 chain
In the case of B3, the binding [1] is reported as “binds”.

B4: BATF (construct of the in vitro binding assays), O35284 1-125 (protein)
chain: B1 chain
With B4 the binding [2] was “binds” and the binding [3] was “binds”.

B5: JunB (construct of the in vitro binding assays) (protein, UniProt P09450 1-344)
chain: T1 sequence
In the case of B5, the binding [4] is reported as “binds”.
